Here are results for 32 substances from US11135246B2, “Peptides and combination of peptides for use in immunotherapy against leukemias and other cancers” (Immatics Biotechnologies GmbH, priority 2017, dated 2021).

The data set concerns HLA molecules of primary tumor samples. The data set is described as follows: Identification of tumor associated peptides presented on the cell surface (HLA immune precipitation, LC-MS). The conditions noted are these: for Peptide Presentation on cancer entities: entities on which the peptide was presented, CLL = chronic lymphocytic leukemia, AML = acute myeloid leukemia, CML = Chronic myeloid leukemia; for Peptide Presentation on tumor types: tumor entities on which the peptide was found presented (Table 8b). The arrangement: species or system human.

As to “216 (RIKAPSRNTIQK; listed as Homo sapiens) [compound 216]”, the “Peptide Presentation on cancer entities” value is on record as “CLL” and the “Peptide Presentation on tumor types” value is “NHL”.
With “217 (TTVPHVFSK; listed as Homo sapiens) [compound 217]”, the “Peptide Presentation on cancer entities” value was “CLL” and the “Peptide Presentation on tumor types” value is “BRCA, CCC, CRC, GBC, GC, HCC, MEL, NHL, NSCLCadeno, NSCLCother, NSCLCsquam, OC, OSCAR, PACA, PRCA, RCC, SCLC, UEC”.
Taken in the same sequence, the figures for “218 (RVLTGVFTK; listed as Homo sapiens) [compound 218]” were “CLL” and “NHL”.
As to “219 (HSYSSPSTK; listed as Homo sapiens) [compound 219]”, the “Peptide Presentation on cancer entities” value is on record as “CLL”.
For “220 (SISNLVFTY; listed as Homo sapiens) [compound 220]”, the “Peptide Presentation on cancer entities” value is “AML” and the “Peptide Presentation on tumor types” value is reported as “BRCA, CRC, GBC, GC, HCC, HNSCC, MEL, NSCLCadeno, NSCLCsquam, OC, OSCAR, PACA, PRCA, RCC, SCLC, UBC, UEC”.
With “221 (LLNRHILAH; listed as Homo sapiens) [compound 221]”, the “Peptide Presentation on cancer entities” value is “CLL” and the “Peptide Presentation on tumor types” value is reported as “MEL, UEC”.
In the case of “222 (RYLDEINLL; listed as Homo sapiens) [compound 222]”, the “Peptide Presentation on cancer entities” value is “AML” and the “Peptide Presentation on tumor types” value is reported as “BRCA, CCC, CRC, GBC, GBM, GC, HCC, HNSCC, MEL, NHL, NSCLCadeno, NSCLCother, NSCLCsquam, OC, OSCAR, PACA, PRCA, RCC, SCLC, UBC, UEC”.
On to “223 (RRMYPPPLI; listed as Homo sapiens) [compound 223]”, for which the “Peptide Presentation on cancer entities” value is on record as “CLL” and the “Peptide Presentation on tumor types” value was “HCC, MEL, NHL, NSCLCadeno, NSCLCother, NSCLCsquam, OC, SCLC, UEC”.
As to “224 (VYEYVVERF; listed as Homo sapiens) [compound 224]”, the “Peptide Presentation on cancer entities” value is “CLL” and the “Peptide Presentation on tumor types” value is “BRCA, CCC, CRC, GBC, GBM, GC, GEJC, HCC, HNSCC, MEL, NHL, NSCLCadeno, NSCLCother, NSCLCsquam, OC, OSCAR, PACA, PRCA, RCC, SCLC, UBC, UEC”.
Regarding “225 (LPARFYQAL; listed as Homo sapiens) [compound 225]”, the “Peptide Presentation on cancer entities” value was “CLL” and the “Peptide Presentation on tumor types” value is on record as “BRCA, OSCAR”.
Take “226 (YLNRHLHTW; listed as Homo sapiens) [compound 226]”: the “Peptide Presentation on cancer entities” value was “CLL” and the “Peptide Presentation on tumor types” value is “NHL, NSCLCsquam”.
Take “227 (APINKAGSFL; listed as Homo sapiens) [compound 227]”: the “Peptide Presentation on cancer entities” value is reported as “CLL” and the “Peptide Presentation on tumor types” value is on record as “MEL, NHL, OC”.
With “228 (SPRITFPSL; listed as Homo sapiens) [compound 228]”, the “Peptide Presentation on cancer entities” value was “CLL”.
Regarding “229 (SPLGSLARSSL; listed as Homo sapiens) [compound 229]”, the “Peptide Presentation on cancer entities” value is listed as “CLL” and the “Peptide Presentation on tumor types” value is “GBC, NHL, OC, OSCAR”.
“230 (KPMKSVLVV; listed as Homo sapiens) [compound 230]”: the “Peptide Presentation on cancer entities” value is “CLL” and the “Peptide Presentation on tumor types” value is reported as “BRCA, GC, NHL, NSCLCadeno, OC, OSCAR, UBC”.
As for “231 (MPLSTIREV; listed as Homo sapiens) [compound 231]”, the “Peptide Presentation on cancer entities” value is reported as “AML, CML” and the “Peptide Presentation on tumor types” value is recorded as “BRCA, CRC, GBC, GBM, GC, HCC, HNSCC, MEL, NHL, NSCLCadeno, NSCLCsquam, OC, OSCAR, PACA, PRCA, RCC, SCLC, UBC, UEC”.
Take “232 (APRPAGSYL; listed as Homo sapiens) [compound 232]”: the “Peptide Presentation on cancer entities” value was “CLL” and the “Peptide Presentation on tumor types” value was “BRCA, CCC, CRC, GBC, GBM, GC, HCC, HNSCC, MEL, NHL, NSCLCadeno, NSCLCother, NSCLCsquam, OC, OSCAR, PACA, PRCA, RCC, SCLC, UBC, UEC”.
“233 (SPRVYWLGL; listed as Homo sapiens) [compound 233]”: the “Peptide Presentation on cancer entities” value is on record as “CLL” and the “Peptide Presentation on tumor types” value is “NHL”.
Turning to “234 (SPKESENAL; listed as Homo sapiens) [compound 234]”, the “Peptide Presentation on cancer entities” value is given as “CLL” and the “Peptide Presentation on tumor types” value is reported as “NHL, NSCLCsquam”.
On to “235 (SPSLPSRTL; listed as Homo sapiens) [compound 235]”, for which the “Peptide Presentation on cancer entities” value is “CLL”.
Take “236 (RPSNKAPLL; listed as Homo sapiens) [compound 236]”: the “Peptide Presentation on cancer entities” value is given as “CLL”.
“237 (SPWLHAPSL; listed as Homo sapiens) [compound 237]”: the “Peptide Presentation on cancer entities” value is “CLL” and the “Peptide Presentation on tumor types” value is reported as “GBC, NHL, NSCLCadeno, OC”.
With “238 (SPRSWIQVQI; listed as Homo sapiens) [compound 238]”, the “Peptide Presentation on cancer entities” value is “CLL” and the “Peptide Presentation on tumor types” value was “BRCA, CRC, GBC, HNSCC, MEL, NHL, NSCLCadeno, NSCLCother, NSCLCsquam, OC, OSCAR, PACA, RCC, SCLC, UEC”.
For “239 (APSKTSLIM; listed as Homo sapiens) [compound 239]”, the “Peptide Presentation on cancer entities” value is given as “CLL” and the “Peptide Presentation on tumor types” value is reported as “BRCA, CCC, CRC, GBC, GBM, GC, HCC, HNSCC, MEL, NHL, NSCLCadeno, NSCLCother, NSCLCsquam, OC, OSCAR, PACA, PRCA, RCC, SCLC, UBC, UEC”.
As to “240 (SPSLPNITL; listed as Homo sapiens) [compound 240]”, the “Peptide Presentation on cancer entities” value is given as “CLL” and the “Peptide Presentation on tumor types” value is on record as “BRCA, CCC, CRC, GBC, GBM, GC, HCC, HNSCC, MEL, NHL, NSCLCadeno, NSCLCother, NSCLCsquam, OC, OSCAR, PACA, PRCA, RCC, SCLC, UBC, UEC”.
Consider “241 (APAPAEKTPV; listed as Homo sapiens) [compound 241]”, for which the “Peptide Presentation on cancer entities” value was “CLL” and the “Peptide Presentation on tumor types” value is “BRCA, CRC, GBC, GBM, GC, HNSCC, MEL, NHL, NSCLCadeno, NSCLCsquam, OC, OSCAR, PACA, PRCA, SCLC, UBC, UEC”.
“242 (SPFSFHHVL; listed as Homo sapiens) [compound 242]”: the “Peptide Presentation on cancer entities” value is on record as “CLL” and the “Peptide Presentation on tumor types” value is “BRCA, CCC, CRC, GBC, GBM, GC, HCC, HNSCC, MEL, NHL, NSCLCadeno, NSCLCother, NSCLCsquam, OC, OSCAR, PACA, PRCA, RCC, SCLC, UBC, UEC”.
Turning to “243 (LPKVQSIQL; listed as Homo sapiens) [compound 243]”, the “Peptide Presentation on cancer entities” value was “CLL” and the “Peptide Presentation on tumor types” value was “CCC, HCC, NSCLCadeno, NSCLCsquam, OC, OSCAR, RCC”.
For “244 (MPSSDTTVTF; listed as Homo sapiens) [compound 244]”, the “Peptide Presentation on cancer entities” value was “CLL” and the “Peptide Presentation on tumor types” value is on record as “BRCA, CCC, CRC, GBC, GBM, GC, HCC, HNSCC, MEL, NHL, NSCLCadeno, NSCLCother, NSCLCsquam, OC, OSCAR, PACA, PRCA, RCC, SCLC, UBC, UEC”.
As for “245 (SPLSHHSQL; listed as Homo sapiens) [compound 245]”, the “Peptide Presentation on cancer entities” value is reported as “CLL” and the “Peptide Presentation on tumor types” value is reported as “GC, NHL, NSCLCadeno, NSCLCother, NSCLCsquam, OC, OSCAR”.
Consider “246 (YPGWHSTTI; listed as Homo sapiens) [compound 246]”, for which the “Peptide Presentation on cancer entities” value is “AML” and the “Peptide Presentation on tumor types” value is “CRC, HNSCC, NHL”.
Turning to “247 (QPSPARAPAEL; listed as Homo sapiens) [compound 247]”, the “Peptide Presentation on cancer entities” value is recorded as “CLL” and the “Peptide Presentation on tumor types” value was “GBC, NHL, NSCLCadeno, NSCLCsquam, OSCAR, SCLC”.
